Results are given in words; binding and its absence hold for the method and conditions named. Binding seen in cells or lysates may run through a third protein. A yes stands for co-enrichment or nearness to the bait. Other partners may have been found.

By UniProt entry, the sequences of proteins in these tests, tags left out. Where a name states a change or a piece, a line headed by the entry shows the natural chain unless it says otherwise.
UniProt P08514: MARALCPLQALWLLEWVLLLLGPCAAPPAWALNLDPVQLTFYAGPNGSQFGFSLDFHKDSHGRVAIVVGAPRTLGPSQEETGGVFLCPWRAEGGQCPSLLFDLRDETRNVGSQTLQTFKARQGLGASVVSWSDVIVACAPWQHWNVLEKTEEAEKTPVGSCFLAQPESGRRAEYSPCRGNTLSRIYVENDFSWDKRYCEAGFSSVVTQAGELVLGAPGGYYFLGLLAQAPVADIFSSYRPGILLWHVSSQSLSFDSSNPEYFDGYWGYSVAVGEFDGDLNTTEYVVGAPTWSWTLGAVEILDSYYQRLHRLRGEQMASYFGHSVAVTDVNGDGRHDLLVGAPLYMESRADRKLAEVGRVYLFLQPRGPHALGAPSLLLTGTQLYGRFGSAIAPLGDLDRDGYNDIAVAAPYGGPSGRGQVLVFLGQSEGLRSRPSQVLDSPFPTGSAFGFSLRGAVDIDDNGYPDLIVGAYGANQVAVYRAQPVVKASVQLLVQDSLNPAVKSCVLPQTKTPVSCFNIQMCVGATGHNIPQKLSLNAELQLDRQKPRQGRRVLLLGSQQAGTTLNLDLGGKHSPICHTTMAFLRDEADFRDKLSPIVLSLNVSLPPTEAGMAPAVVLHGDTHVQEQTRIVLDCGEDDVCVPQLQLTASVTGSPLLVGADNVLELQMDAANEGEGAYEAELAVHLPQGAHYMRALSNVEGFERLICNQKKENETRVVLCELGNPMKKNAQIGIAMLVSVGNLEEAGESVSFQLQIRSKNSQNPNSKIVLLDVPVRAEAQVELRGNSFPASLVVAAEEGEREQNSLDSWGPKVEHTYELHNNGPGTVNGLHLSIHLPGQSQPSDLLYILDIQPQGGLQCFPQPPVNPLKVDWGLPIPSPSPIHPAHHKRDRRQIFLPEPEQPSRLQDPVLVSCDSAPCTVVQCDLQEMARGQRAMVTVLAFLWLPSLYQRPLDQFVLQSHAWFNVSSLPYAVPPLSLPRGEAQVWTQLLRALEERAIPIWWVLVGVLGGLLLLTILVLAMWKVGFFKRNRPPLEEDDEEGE

The results in this text go back to patent publication US20100048677A1.

This assay deals with αIIbβ3 (human) (UniProt P08514). The assay is described as follows: His-tag pull-down or photo-crosslinking and immunoprecipitation, mass spectrometry.

B1: DNAJC10 (DNAJ (HSP40) HOMOLOG, SUBFAMILY C, MEMBER 10) (protein)
chain: DQDFYSLLGVSKTASSREIRQAFKKLALKLHPDKNPNNPNAHGDFLKINRAYEVLKDEDLRKKYDKYGEKGLEDNQGGQYESWNYYRYDFGIYDDDPEIITLERREFDAAVNSGELWFVNFYSPGCSHCHDLAPTWRDFAKEVDGLLRIGAVNCGDDRMLCRMKGVNSYPSLFIFRSGMAPVKYHGDRSKESLVSFAMQHVRSTVTELWTGNFVNSIQTAFAAGIGWLITFCSKGGDCLTSQTRLRLSGMLDGLVNVGWMDCATQDNLCKSLDITTSTTAYFPPGATLNNKEKNSILFLNSLDAKEIYLEVIHNLPDFELLSANTLEDRLAHHRWLLFFHFGKNENSNDPELKKLKTLLKNDHIQVGRFDCSSAPDICSNLYVFQPSLAVFKGQGTKEYEIHHGKKILYDILAFAKESVNSHVTTLGPQNFPANDKEPWLVDFFAPWCPPCRALLPELRRASNLLYGQLKFGTLDCTVHEGLCNMYNIQAYPTTVVFNQSNIHEYEGHHSAEQILEFIEDLMNPSVVSLTPTTFNELVTQRKHNEVWMVDFYSPWCHPCQVLMPEWKRMARTLTGLINVGSIDCQQYHSFCAQENVQRYPEIRFFPPKSNKAYHYHSYNGWNRDAYSLRIWGLGFLPQVSTDLTPQTFSEKVLQGKNHWVIDFYAPWCGPCQNFAPEFELLARMIKGKVKAGKVDCQAYAQTCQKAGIRAYPTVKFYFYERAKRNFQEEQINTRDAKAIAALISEKLETLRNQGKRNKDEL
B1: the binding result is reported as “binds”.
